Laboratory results taken from patent US20220386606A1, “SPECIFICALLY SUBSTITUTED 3-PHENYL-5-SPIROCYCLOPENTYL-3-PYRROLIN-2-ONES AND THEIR USE AS HERBICIDES” (Bayer Aktiengesellschaft, priority 2019, published 2022).
Some results were stated once for a whole list of compounds, not compound by compound. Some ranges recur; such a range may be that of the whole group of compounds.

How the values were obtained:
[1] = test system: ALOMY; test: Post-emergence herbicidal action against ALOMY; type: in vivo, Alopecurus myosuroides; conditions: application rate 80 g/ha
Experimental: (§1) Seeds of monocotyledonous and dicotyledonous weed and crop plants are laid out in sandy loam soil in wood-fiber pots, covered with soil and cultivated in a greenhouse under good growth conditions. 2 to 3 weeks after sowing, the test plants are treated at the one-leaf stage. The compounds of the invention, formulated in the form of wettable powders (WP) or as emulsion concentrates (EC), are then sprayed onto the green parts of the plants as aqueous suspension or emulsion at a water application rate equating to 600 to 800 l/ha with addition of 0.2% wetting agent. After the test plants have been left to stand in the greenhouse under optimal growth conditions for about 3 weeks, the action of the preparations is assessed visually in comparison to untreated controls (herbicidal action in percent (%): 100% activity=the plants have died, 0% activity=like control plants).

[2] = test system: AVEFA; test: Post-emergence herbicidal action against AVEFA; type: in vivo, Avena fatua; conditions: application rate 80 g/ha
Experimental: as §1

[3] = test system: DIGSA; test: Post-emergence herbicidal action against DIGSA; type: in vivo, Digitaria sanguinalis; conditions: application rate 80 g/ha
Experimental: as §1

[4] = test system: ECHCG; test: Post-emergence herbicidal action against ECHCG; type: in vivo, Echinochloa crus-galli; conditions: application rate 80 g/ha
Experimental: as §1

[5] = test system: SETVI; test: Post-emergence herbicidal action against SETVI; type: in vivo, Setaria viridis; conditions: application rate 80 g/ha
Experimental: as §1

[6] = test system: HORMU; test: Post-emergence herbicidal action against HORMU; type: in vivo, Hordeum murinum; conditions: application rate 80 g/ha
Experimental: as §1

[7] = test system: ALOMY; test: Pre-emergence herbicidal action against ALOMY; type: in vivo, Alopecurus myosuroides; conditions: application rate 320 g/ha
Source text: (§2) Seeds of monocotyledonous and dicotyledonous weed plants and crop plants are laid out in sandy loam soil in wood-fiber pots and covered with soil. The compounds of the invention, formulated in the form of wettable powders (WP) or as emulsion concentrates (EC), are then applied to the surface of the covering soil as aqueous suspension or emulsion at a water application rate equating to 600 to 800 L/ha with addition of 0.2% wetting agent.
(§3) After the treatment, the pots are placed in a greenhouse and kept under good growth conditions for the trial plants. The damage to the test plants is scored visually after a test period of 3 weeks by comparison with untreated controls (herbicidal activity in percent (%): 100% activity=the plants have died, 0% activity=like control plants).

[8] = test system: AVEFA; test: Pre-emergence herbicidal action against AVEFA; type: in vivo, Avena fatua; conditions: application rate 320 g/ha
Source text: as §2, §3

[9] = test system: DIGSA; test: Pre-emergence herbicidal action against DIGSA; type: in vivo, Digitaria sanguinalis; conditions: application rate 320 g/ha
Source text: as §2, §3

[10] = test system: ECHCG; test: Pre-emergence herbicidal action against ECHCG; type: in vivo, Echinochloa crus-galli; conditions: application rate 320 g/ha
Source text: as §2, §3

[11] = test system: LOLRI; test: Pre-emergence herbicidal action against LOLRI (Table 8, titled post-emergence at 320 g/ha); type: in vivo, Lolium rigidum; conditions: application rate 320 g/ha
Source text: as §2, §3

[12] = test system: SETVI; test: Pre-emergence herbicidal action against SETVI; type: in vivo, Setaria viridis; conditions: application rate 320 g/ha
Source text: as §2, §3

SMILES	efficacy against Alopecurus myosuroides [1]	efficacy against Avena fatua [2]	efficacy against Digitaria sanguinalis [3]	efficacy against Echinochloa crus-galli [4]	efficacy against Setaria viridis [5]	efficacy against Hordeum murinum [6]	efficacy against Alopecurus myosuroides [7]	efficacy against Avena fatua [8]	efficacy against Digitaria sanguinalis [9]	efficacy against Echinochloa crus-galli [10]	efficacy against Lolium rigidum [11]	efficacy against Setaria viridis [12]
CC#Cc1cc(Cl)c(C2=C(OC(=O)OCC)C3(CCC(COCC)C3)NC2=O)c(OC)c1 (stereo not drawn) [Example P-26]	80-100%	80-100%	80-100%	80-100%	80-100%	80-100%	–	–	–	–	–	–
CC#Cc1cc(Cl)c(C2=C(OC(=O)C(C)C)C3(CCC(COC)C3)NC2=O)c(CC)c1 (stereo not drawn) [Example P-22]	80-100%	80-100%	80-100%	80-100%	80-100%	80-100%	–	–	–	–	–	–
CC#Cc1cc(C)c(C2=C(OC(=O)OCC)C3(CCC(COCCC)C3)NC2=O)c(OC)c1 (stereo not drawn) [Example P-81]	–	–	–	–	–	–	90-100%	90-100%	90-100%	90-100%	90-100%	90-100%
CC#Cc1cc(Br)c(C2=C(O)C3(CCC(COC)C3)NC2=O)c(OC)c1 (stereo not drawn) [Example I-10]	–	–	–	–	–	–	90-100%	90-100%	90-100%	90-100%	90-100%	90-100%
CC#Cc1cc(C)c(C2=C(OC(=O)OCC)C3(CCC(COCCOC)C3)NC2=O)c(Cl)c1 (stereo not drawn) [Example P-76]	–	–	–	–	–	–	90-100%	90-100%	90-100%	90-100%	90-100%	90-100%
CC#Cc1cc(C)c(C2=C(O)C3(CCC(COCC)C3)NC2=O)c(Cl)c1 (stereo not drawn) [Example I-02]	–	–	–	–	–	–	90-100%	90-100%	90-100%	90-100%	90-100%	90-100%
CC#Cc1cc(Cl)c(C2=C(OC(=O)C(C)C)C3(CCC(COCC)C3)NC2=O)c(OC)c1 (stereo not drawn) [Example P-25]	80-100%	80-100%	80-100%	80-100%	80-100%	80-100%	–	–	–	–	–	–
C=CCOCC1CCC2(C1)NC(=O)C(c1c(F)cc(C#CC)cc1OC)=C2OC(=O)OCC (stereo not drawn) [Example P-77]	–	–	–	–	–	–	90-100%	90-100%	90-100%	90-100%	90-100%	90-100%
